Experimental data taken from patent publication US8287752B2, “Fire extinguishing and fire suppression compositions comprising unsaturated fluorocarbons” (E I du Pont de Nemours and Company, priority 2005, dated 2012).

Assay: Fire extinguishing concentration by the ICI Cup Burner method
Conditions: fuel n-heptane, air flow 40 liters/minute

SMILES | FIRE EXTINGUISHING CONCENTRATION
FC(F)(F)F [CF4] | 20.5% vol % in air
FC(F)Cl [CHF2Cl] | 13.6% vol % in air
FC(F)(F)C(F)(F)F [Code C2F6] | 8.7% vol % in air
FC(F)(F)C=CC(F)(F)F [Code F11E, 1,1,1,4,4,4-hexafluorobut-2-ene] | 5.6% vol % in air
FC(F)(F)C=CC(F)(F)C(F)(F)C(F)(F)C(F)(F)F [Code F14E, 1,1,1,4,4,5,5,6,6,7,7,7-dodecafluorohept-2-ene] | 4.7% vol % in air
FC(F)(F)C(F)(F)CCl [HCFC-235cb] | 6.2% vol % in air
FC(C(F)(F)F)C(F)(F)F [HFC-227ea] | 7.3% vol % in air
FC(F)C(F)C(F)(F)F (centres unmarked) [HFC-236ea] | 10.2% vol % in air
FC(F)(Cl)Br [Halon1211, bromochlorodifluoromethane] | 6.2% vol % in air
FC(F)(F)Br [Halon1301, bromotrifluoromethane] | 4.2% vol % in air
C=CC(F)(F)C(F)(F)C(F)(F)C(F)(F)F [PFBE, 3,3,4,4,5,5,6,6,6-nonafluorohex-1-ene] | 5.3% vol % in air
